This note sets out measurements from doi:10.1101/2021.02.02.429361 (bioRxiv, 2021).

Experiment [1] concerns the target T1, AtMPK3 (mitogen activated protein kinase-3), full length, yeast two-hybrid fusion (Arabidopsis thaliana) (UniProt Q39023).
T1 sequence: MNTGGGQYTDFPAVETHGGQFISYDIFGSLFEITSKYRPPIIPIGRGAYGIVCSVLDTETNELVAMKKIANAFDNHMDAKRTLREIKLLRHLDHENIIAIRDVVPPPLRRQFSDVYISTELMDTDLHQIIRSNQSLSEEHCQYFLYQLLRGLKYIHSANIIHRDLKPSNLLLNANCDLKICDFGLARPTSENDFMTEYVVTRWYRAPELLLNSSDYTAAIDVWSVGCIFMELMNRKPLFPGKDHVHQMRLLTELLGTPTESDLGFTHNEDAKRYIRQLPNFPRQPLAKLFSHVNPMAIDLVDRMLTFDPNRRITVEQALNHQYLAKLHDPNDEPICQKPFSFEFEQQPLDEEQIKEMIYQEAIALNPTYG
The experiment is described as follows: two-hybrid.

Experiment [2] addresses T2, AtABI5^S314A (phospho-null), BiFC fusion (Arabidopsis thaliana) (UniProt Q9SJN0).
T2 sequence: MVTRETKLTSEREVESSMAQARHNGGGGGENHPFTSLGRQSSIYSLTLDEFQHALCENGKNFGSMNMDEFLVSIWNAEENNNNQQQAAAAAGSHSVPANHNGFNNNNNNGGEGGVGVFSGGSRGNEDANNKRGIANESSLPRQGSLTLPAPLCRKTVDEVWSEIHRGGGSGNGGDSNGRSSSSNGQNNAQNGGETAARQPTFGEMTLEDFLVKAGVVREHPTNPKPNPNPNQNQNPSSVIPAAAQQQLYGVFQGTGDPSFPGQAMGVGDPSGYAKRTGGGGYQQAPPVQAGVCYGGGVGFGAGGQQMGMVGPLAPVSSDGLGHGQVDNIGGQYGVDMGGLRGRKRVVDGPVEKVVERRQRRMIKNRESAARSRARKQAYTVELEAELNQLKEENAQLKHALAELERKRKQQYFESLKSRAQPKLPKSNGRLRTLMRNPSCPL
In words: split reporter.

Experiment [3] deals with T3, MPK3-cYFP (BiFC fusion) (Arabidopsis thaliana) (UniProt Q39023).
T3 sequence: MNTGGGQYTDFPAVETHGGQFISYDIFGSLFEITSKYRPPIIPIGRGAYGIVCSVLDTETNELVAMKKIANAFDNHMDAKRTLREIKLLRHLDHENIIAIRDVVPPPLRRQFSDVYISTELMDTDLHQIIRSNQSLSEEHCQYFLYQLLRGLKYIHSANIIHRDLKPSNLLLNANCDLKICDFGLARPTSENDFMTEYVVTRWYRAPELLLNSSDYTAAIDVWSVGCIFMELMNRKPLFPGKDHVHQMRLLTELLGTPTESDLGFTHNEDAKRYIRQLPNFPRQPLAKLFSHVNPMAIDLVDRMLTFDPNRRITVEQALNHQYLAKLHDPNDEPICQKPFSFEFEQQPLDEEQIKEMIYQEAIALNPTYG
In words: split reporter.

For experiment [4], the target named is AtABI5 wild type, BiFC fusion (ABI5-nYFP) (Arabidopsis thaliana) (UniProt Q9SJN0). The experiment is described as follows: split reporter.
The target of experiment [5] is AtABI5^S314D (phospho-mimic), BiFC fusion (Arabidopsis thaliana) (UniProt Q9SJN0). In words: split reporter.

No constants are given. Whether binding was seen depends on the method and setting. For part of these data: In cells and extracts the contact can be indirect. Some binding calls cover weakened binding; strength is not graded here. Where a sequence is shown, tags or fusion partners need not be part of it.

B1: AtABI5 (ABSCISIC ACID-… 5) full length, yeast two-hybrid fusion (protein, UniProt Q9SJN0 1-442)
chain: MVTRETKLTSEREVESSMAQARHNGGGGGENHPFTSLGRQSSIYSLTLDEFQHALCENGKNFGSMNMDEFLVSIWNAEENNNNQQQAAAAAGSHSVPANHNGFNNNNNNGGEGGVGVFSGGSRGNEDANNKRGIANESSLPRQGSLTLPAPLCRKTVDEVWSEIHRGGGSGNGGDSNGRSSSSNGQNNAQNGGETAARQPTFGEMTLEDFLVKAGVVREHPTNPKPNPNPNQNQNPSSVIPAAAQQQLYGVFQGTGDPSFPGQAMGVGDPSGYAKRTGGGGYQQAPPVQAGVCYGGGVGFGAGGQQMGMVGPLSPVSSDGLGHGQVDNIGGQYGVDMGGLRGRKRVVDGPVEKVVERRQRRMIKNRESAARSRARKQAYTVELEAELNQLKEENAQLKHALAELERKRKQQYFESLKSRAQPKLPKSNGRLRTLMRNPSCPL
In the case of B1, in experiment [1], the binding entry is recorded as “binds”.

B2: AtABI5^S314A (phospho-null), BiFC fusion (protein, UniProt Q9SJN0 1-442)
chain: MVTRETKLTSEREVESSMAQARHNGGGGGENHPFTSLGRQSSIYSLTLDEFQHALCENGKNFGSMNMDEFLVSIWNAEENNNNQQQAAAAAGSHSVPANHNGFNNNNNNGGEGGVGVFSGGSRGNEDANNKRGIANESSLPRQGSLTLPAPLCRKTVDEVWSEIHRGGGSGNGGDSNGRSSSSNGQNNAQNGGETAARQPTFGEMTLEDFLVKAGVVREHPTNPKPNPNPNQNQNPSSVIPAAAQQQLYGVFQGTGDPSFPGQAMGVGDPSGYAKRTGGGGYQQAPPVQAGVCYGGGVGFGAGGQQMGMVGPLAPVSSDGLGHGQVDNIGGQYGVDMGGLRGRKRVVDGPVEKVVERRQRRMIKNRESAARSRARKQAYTVELEAELNQLKEENAQLKHALAELERKRKQQYFESLKSRAQPKLPKSNGRLRTLMRNPSCPL
As to B2, the binding result in experiment [2] is on record as “binds”.

B3: AtABI5 wild type, BiFC fusion (ABI5-nYFP) (protein, UniProt Q9SJN0 1-442)
chain: MVTRETKLTSEREVESSMAQARHNGGGGGENHPFTSLGRQSSIYSLTLDEFQHALCENGKNFGSMNMDEFLVSIWNAEENNNNQQQAAAAAGSHSVPANHNGFNNNNNNGGEGGVGVFSGGSRGNEDANNKRGIANESSLPRQGSLTLPAPLCRKTVDEVWSEIHRGGGSGNGGDSNGRSSSSNGQNNAQNGGETAARQPTFGEMTLEDFLVKAGVVREHPTNPKPNPNPNQNQNPSSVIPAAAQQQLYGVFQGTGDPSFPGQAMGVGDPSGYAKRTGGGGYQQAPPVQAGVCYGGGVGFGAGGQQMGMVGPLSPVSSDGLGHGQVDNIGGQYGVDMGGLRGRKRVVDGPVEKVVERRQRRMIKNRESAARSRARKQAYTVELEAELNQLKEENAQLKHALAELERKRKQQYFESLKSRAQPKLPKSNGRLRTLMRNPSCPL
As for B3, the binding entry in experiment [3] and in experiment [4] was “binds” each time.

B4: AtABI5^S314D (phospho-mimic), BiFC fusion (protein, UniProt Q9SJN0 1-442)
chain: MVTRETKLTSEREVESSMAQARHNGGGGGENHPFTSLGRQSSIYSLTLDEFQHALCENGKNFGSMNMDEFLVSIWNAEENNNNQQQAAAAAGSHSVPANHNGFNNNNNNGGEGGVGVFSGGSRGNEDANNKRGIANESSLPRQGSLTLPAPLCRKTVDEVWSEIHRGGGSGNGGDSNGRSSSSNGQNNAQNGGETAARQPTFGEMTLEDFLVKAGVVREHPTNPKPNPNPNQNQNPSSVIPAAAQQQLYGVFQGTGDPSFPGQAMGVGDPSGYAKRTGGGGYQQAPPVQAGVCYGGGVGFGAGGQQMGMVGPLDPVSSDGLGHGQVDNIGGQYGVDMGGLRGRKRVVDGPVEKVVERRQRRMIKNRESAARSRARKQAYTVELEAELNQLKEENAQLKHALAELERKRKQQYFESLKSRAQPKLPKSNGRLRTLMRNPSCPL
Turning to B4, the binding result in experiment [5] and in experiment [2] was “no binding” in each case.
